Reference: PubChem BioAssay (EPA / NIEHS)
This list was built around the results that the source calls inconclusive (neither active nor inactive); the mix of calls is not that of the screen. Potencies beside an inconclusive call are fits to weak or partial responses and may not hold up. The source made the active and inactive calls. The calls were made as follows: active = hit-call score of the fitted dose curve at least 0.9, where 1 is the maximum; inconclusive = response in the unintended direction; inactive = score below 0.9.

Read-out: HMG-CoA synthase (HMGCS2), HMGCS2 (gene 3158)
Experiment: CLD_HMGCS2_6hr: CellzDirect (CLD) Gene Expression Assay for HMG-CoA synthase (HMGCS2) at 6 hours (AID 2283682);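 also: actives raise HMGCS2 transcript above the 0.2% DMSO vehicle baseline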
Method: CLD_6hr is a cell-based, multiplexed-readout assay that uses hepatocyte, a human liver primary cell, with measurements taken at 6 hours after chemical dosing in a 96-well plate.CLD_HMGCS2_6hr is one of 16 assay component(s) measured or calculated from the CLD_6hr assay. It is designed to make measurements of mRNA induction, a form of inducible reporter, as detected with chemiluminescence signals by Quantitative Nuclease Protection Assay (qNPA) technology.Data from the assay component CLD_HMGCS2_6hr was analyzed at the endpoint, CLD_HMGCS2_6hr, in the positive analysis fitting direction relative to DMSO as the negative control and baseline of activity. Using a type of inducible reporter, gain-of-signal activity can be used to understand changes in the reporter gene as they relate to the gene HMGCS2. Furthermore, this assay endpoint can be referred to as a primary readout. To generalize the intended target to other relatable targets, this assay endpoint is annotated to the lyase intended target family, where subfamily is HMG-CoA synthase.
Human hepatocyte cultures were treated daily for two consecutive days with fresh dosing solutions containing appropriate concentrations of the 320 ToxCast chemicals (chemical identities were blinded to CellzDirect and other ToxCast collaborators), vehicle control (0.2% DMSO), and positive control inducers as summarized in Table 1. Due to the large number of treatment groups and chemicals examined, the ToxCast chemicals were divided into two groups (spanning two independent cultures of hepatocytes from separate donor preparations (Hu778: ToxCast plates 1 and 2; Hu776: ToxCast plates 3 and 4). Each preparation of human hepatocyte cultures was treated with respective vehicle control, medium only control, set of six positive controls/reference chemicals for the five hepatic receptor pathways, and a subset of eight of the ToxCast chemicals (indoxacarb, pyrithiobac-sodium, norflurazon, cyhalofop-butyl, methomyl, thiram, acetochlor, and propiconazole). These replicate data, coupled with internal replicates designed within the blinded ToxCast chemical library, provided additional data to evaluate interindividual differences between hepatocyte preparations and their potential impact on chemical profiles.Cell morphology and integrity were evaluated using phase-contrast microscopy as an indicator of hepatocyte cell health (Tyson & Green, 1987). Cultures for each treatment group (i.e., media, vehicle [0.2% DMSO], positive control inducers [multiple concentrations], and the ToxCast chemicals [multiple concentrations]) were observed and cell morphology was assessed relative to vehicle control cultures at each harvest time point (0, 6, 24, or 48 h). […] Images were evaluated at the conclusion of the study to assess changes in cell integrity and account for the effects of chemical exposure on uncharacteristic changes in concentration-dependent gene expression profiles. The results from these determinations of apparent cytotoxicity were annotated (yes/no) alongside the corresponding qNPA data for reference.At the conclusion of each treatment period, hepatocyte cultures (96-well) were washed with 1 volume of HBSS, lysed by addition of 25 ul ArrayPlate lysis buffer (HTG, Tucson, AZ), and 70 ul/well of Denaturation Oil, denatured by incubation at 95C for 10 min, and frozen at approximately -70C until analysis by nuclease protection assay (qNPA) (Roberts et al., 2007). For qNPA analysis, cell lysates were thawed at 50C for approximately 30 min, qNPA probes were added, and samples were incubated at 95C for 10 min to begin the detection process by denaturing the target RNA, dissociating the duplexes and secondary structure hybridization. At the conclusion of the hybridization period, S1 nuclease reagent was added to each sample to digest all nonprotected nucleotides at 50C for 60-90 min. […]

outcome, inactive:
CCC(O)=C1C(=O)CC(C(=O)O)CC1=O (centres undefined)
c1ccc(Nc2ccccc2)cc1
CCCCC(CC)COC(=O)c1ccccc1C(=O)O (centres undefined)
S=C([S-])NCCNC(=S)[S-].[Mn+2]
Oc1ccc(C(c2ccc(O)cc2)C(Cl)(Cl)Cl)cc1

AC50, inconclusive:
CCCOC(=O)NCCCN(C)C 0.574 µM
CCOC(=O)[C@H](C)Oc1ccc(Oc2nc3ccc(Cl)cc3o2)cc1 20 µM
S=C(S)NCCNC(=S)S.[Mn+2].[S-]C([S-])=NCCN=C([S-])[S-].[Zn+2] 20 µM
CCOC(=O)NCCOc1ccc(Oc2ccccc2)cc1 20 µM
COC(=O)c1cccc(C)c1S(=O)(=O)NC(=O)Nc1nc(OCC(F)(F)F)nc(N(C)C)n1 0.00443 µM
CCCCOCCOCCOCc1cc2c(cc1CCC)OCO2 0.00133 µM
CCCCCCC(C)OC(=O)COc1nc(F)c(Cl)c(N)c1Cl (centres undefined) 0.142 µM
CCCN(CCC)c1c([N+](=O)[O-])cc(C(F)(F)F)c(N)c1[N+](=O)[O-] 20 µM

3 compounds from above, sorted by count of non-hydrogen atoms, low to high:
AC50, inconclusive:
CCCOC(=O)NCCCN(C)C 0.574 µM
CCCCCCC(C)OC(=O)COc1nc(F)c(Cl)c(N)c1Cl (centres undefined) 0.142 µM
CCCCOCCOCCOCc1cc2c(cc1CCC)OCO2 0.00133 µM

Next part.

AC50, active:
CC(C)(C)[C@@H](O)[C@@H](Cc1ccc(Cl)cc1)n1cncn1 1.9 µM
